Assay results: PMC12218279

Experiments:
[1] = target: T1, PfFBOX01-HA (P. falciparum) (UniProt C6KT37); test: affinity purification with mass spectrometry; anti-HA beads, immunoprecipitation of PfFBOX01-HA from schizont lysate (0.5X RIPA buffer), LC-MS/MS; DiCre strain as control
T1 sequence: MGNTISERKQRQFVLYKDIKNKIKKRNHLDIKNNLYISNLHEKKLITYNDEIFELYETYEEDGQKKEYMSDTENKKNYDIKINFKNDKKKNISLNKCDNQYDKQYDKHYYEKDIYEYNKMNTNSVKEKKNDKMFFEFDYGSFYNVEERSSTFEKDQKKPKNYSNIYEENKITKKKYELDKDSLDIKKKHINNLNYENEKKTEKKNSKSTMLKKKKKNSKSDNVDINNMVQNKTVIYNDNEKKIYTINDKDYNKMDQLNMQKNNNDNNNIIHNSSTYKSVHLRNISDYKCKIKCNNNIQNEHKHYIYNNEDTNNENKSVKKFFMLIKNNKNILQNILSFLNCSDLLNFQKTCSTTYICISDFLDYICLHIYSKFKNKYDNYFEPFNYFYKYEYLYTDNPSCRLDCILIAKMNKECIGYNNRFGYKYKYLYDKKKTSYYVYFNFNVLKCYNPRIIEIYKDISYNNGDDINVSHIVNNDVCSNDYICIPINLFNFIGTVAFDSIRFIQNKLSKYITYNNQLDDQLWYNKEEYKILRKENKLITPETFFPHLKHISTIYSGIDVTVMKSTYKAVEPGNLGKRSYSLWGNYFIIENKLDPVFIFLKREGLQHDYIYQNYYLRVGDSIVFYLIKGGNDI

[2] = target: T2, PfRBX1-HA (P. falciparum), O77367; test: affinity purification with mass spectrometry; anti-HA agarose immunoprecipitation of PfRBX1-HA from schizont lysate (0.5X RIPA buffer, 1 h at room temperature), LC-MS/MS (DIA); parental DiCre strain as control; details: remark: other sources report otherwise
T2 chain: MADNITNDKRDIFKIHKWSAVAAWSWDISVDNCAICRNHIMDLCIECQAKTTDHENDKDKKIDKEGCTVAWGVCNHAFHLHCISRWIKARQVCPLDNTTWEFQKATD

[3] = target: T3, PfRBX1-HA (P. falciparum) (UniProt O77367); test: as above
T3 sequence: T2 chain

[4] = target: T4, PfSKP1-HA (P. falciparum) (UniProt Q8ID38); test: affinity purification with mass spectrometry; anti-HA agarose immunoprecipitation of PfSKP1-HA from schizont lysate (0.5X RIPA buffer, 1 h at room temperature), LC-MS/MS (DIA); parental DiCre strain as control
T4 sequence: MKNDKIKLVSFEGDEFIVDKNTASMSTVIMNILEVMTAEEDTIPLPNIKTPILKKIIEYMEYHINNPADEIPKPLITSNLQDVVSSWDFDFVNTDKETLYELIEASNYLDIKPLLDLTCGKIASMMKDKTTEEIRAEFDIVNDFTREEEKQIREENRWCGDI

[5] = target: T5, PfMCM4-Flag (P. falciparum) (UniProt Q8IEE5); test: affinity purification with mass spectrometry; anti-Flag agarose immunoprecipitation of PfMCM4-Flag from schizont lysate (0.5X RIPA buffer), LC-MS/MS; DiCre strain as control; also from DiCre-PfSKP1-HA and DiCre-PfRBX1-HA backgrounds pre-treated with DMSO or rapamycin
T5 sequence: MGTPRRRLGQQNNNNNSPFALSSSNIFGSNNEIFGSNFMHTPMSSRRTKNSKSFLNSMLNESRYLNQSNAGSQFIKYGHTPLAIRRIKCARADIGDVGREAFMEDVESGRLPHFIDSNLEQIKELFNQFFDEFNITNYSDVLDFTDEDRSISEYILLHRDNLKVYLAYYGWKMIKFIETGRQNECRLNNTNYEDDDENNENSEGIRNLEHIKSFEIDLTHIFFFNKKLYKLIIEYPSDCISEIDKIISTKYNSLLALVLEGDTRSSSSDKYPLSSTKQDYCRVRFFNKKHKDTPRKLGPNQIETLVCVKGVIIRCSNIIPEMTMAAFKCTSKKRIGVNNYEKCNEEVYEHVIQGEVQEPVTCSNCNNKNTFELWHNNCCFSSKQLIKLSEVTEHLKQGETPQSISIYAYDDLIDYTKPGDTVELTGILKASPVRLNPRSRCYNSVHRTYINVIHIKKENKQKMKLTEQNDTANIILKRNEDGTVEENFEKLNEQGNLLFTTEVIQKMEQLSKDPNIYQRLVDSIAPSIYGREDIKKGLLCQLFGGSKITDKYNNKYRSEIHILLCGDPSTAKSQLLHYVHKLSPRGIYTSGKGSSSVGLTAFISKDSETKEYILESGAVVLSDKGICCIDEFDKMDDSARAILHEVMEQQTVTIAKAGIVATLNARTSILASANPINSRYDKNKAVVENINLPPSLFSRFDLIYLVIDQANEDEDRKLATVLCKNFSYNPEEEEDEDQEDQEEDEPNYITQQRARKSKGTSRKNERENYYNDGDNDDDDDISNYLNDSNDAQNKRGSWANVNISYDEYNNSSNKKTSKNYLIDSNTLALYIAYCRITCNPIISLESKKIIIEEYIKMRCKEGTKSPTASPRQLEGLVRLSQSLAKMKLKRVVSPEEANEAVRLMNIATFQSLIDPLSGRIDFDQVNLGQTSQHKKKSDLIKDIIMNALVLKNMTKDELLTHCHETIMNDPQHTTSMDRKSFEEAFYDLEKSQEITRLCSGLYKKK

binding [1]: binds
B1: PfSKP1 (protein, UniProt Q8ID38 1-162)
chain: T4 sequence

binding [2]: binds
B2: PfSKP1, Q8ID38 1-162 (protein)
chain: T4 sequence

binding [3]: no binding | binding [4]: binds
B3: PfFBOX01 (protein, UniProt C6KT37 1-633)
chain: T1 sequence

binding [1]: binds | binding [4]: binds
B4: Rab11b (protein, UniProt C0H5G2 1-229)
chain: MSNEEYDHLYKIILVGDATVGKTHLLSRYIRGSLPSVAKATIGVEFATRTIPLAVGGTVKAQIWDTAGQERYRSITSAHYRRSAGAILVYDITKKKTFLSISKWLEEIRQNADKDIVIMLVGNKVDLTEEDETKRKVTYEQGANFARENNLFFAEASAVSKLNVKHIFENLLQEIYNNRLKNNNRSFSNRSVATCESAIQLTKARSVIKLNEVYDNQSEDNNMNKVKCC

binding [3]: binds | binding [5]: binds | binding [4]: binds
B5: PfCullin1 (protein, UniProt Q8IAU5 1-829)
chain: MDIVNINFESGWKIIREEAIEKIEKYLENEHIEKNKNLFSATEYTRLYTVVYNMCAKKNPFCYSKEVYRKYGESLSMYTIDKIKPLLKNSDELNKTKILIDAWFKYSFYTKWMNKFLRYLDRYYVEYNSSLCLSAYTKNIFKITLFNELREDIKNIIYEIYNNLRLQEEIDQKELFCNIVELYKELDNESNEKMYEHDIEKKIVENVNNFYKKKAEEWINDYPFDDYIISIENAIEKEYEKNKSLNLNDDTCEKVTNIIVKILIYEKLNTLIDNKNNIFHLLKNNNLSSLRRTYILFSYFPEALTGLKKIIGEYIKMEGNELKDKYVQLSRKMHMSKNVNNMQNVDDNTMEDNDNYIDISNDDNNNNDNSNNNNIMNTEQNDDIILCDYIEQLIKLHNHYDNIFKLSFFNISNKNIDPNFNECLKDYFESFVEHEDEYFSTVKLLVIYTDNILKRDLNNENSVDEKQKIHMNKEEKNDEQTKFLMKKMSEIVEIFNYTSNKETFFEYYRVYLANRLINNIYISLHIEKKFIEQLYYLCGSQYTSKLGGMIQDLINNTNMNNKFYDHMKNVFNNNEIVNNNNNNSIYNDHFSNYHNVKDFFSVKILNKGYWPTLEKIHIQLNEPFNKYIQVFEEYYKSENKNRKLEWIYELSEVILHYEFNNILYNLYCNVVNAQILLLFNKYKYINYDIVKNELQIDLKSFTDHMYTSFYHFKLITSNDQIPDWTNSNFYINNNFSYPNKNVYIKKTTALLSKEHEKTKEDRTMAIEAAIVRVMKMHKKLFYDQIFDYVKKSLSSFSPTNQVIEKKIDLLVEREYIQKEENSQIYVYIP

binding [4]: binds
B6: PF3D7_0506700, a GTP-ase activating protein (protein, UniProt Q8I435 1-819)
chain: MFNHDIIKEKDNYKQKIRTLYRNEKEAIKPCNHYDMKEEEKKKSGKIKRSIKLFGTPAVHGLSSHINNNSGTQLYYNFHNVLKRDKEKIQDDNLNYTLERDAGEDNTMQSIHESDKTETQECGKHYLYNKFDIYKSYLSYKKDLIRNEYDQDYKGITTSLLKGKDTHDDNKDNKDNDDNDDNDDNNDHNDHYDITRDDPCDDMCDDMCEDMCDDMCDDMCDDPCDDMCDDPCDDMCDDPCDDMCDDPCDDPYDHPYEEEKYSTYCDKGYLRNFLKNAIIRPNLQTFVGRKIISFLNEKERDIFSLTCKILFFEVYSVSNLKTLYKYQFISNEKRSFIWKAILLEDNTYISEEDYKELRNRKCLYDKAIEKDINRTFPKHPFFINKNMNMQDKLLDILKVCSLYFERIGYCQGMNYIAGILLLVFRKNIDTIRCFISMLKNYNIKGMFSYNFPQLKKIIYQLNLLIKAYIPKLFYYFKRKKIKIDFFCVNWFLTLFSQDLSFENTLKLWDLFFLFGMKILIKLTLILLYYHEDNIIHLSYDEALTYLKAITKTPFIDYLFQDDHFFTHLKKFKITNSMLTQIIMLKKSRQKINLLVKENNGKLRCSIQIKQNNKHTFTSKIKEGFRNLFKLNENYVDYINYFYQKGDGEENNGNQNNGEEYNGKEYNGNQNNGNQNNGKQNNGNQNNGKQNNGNQNNVKQNNGEDTNKNNNNDDINNNICHNNYSSTNFYKNFFQHFNCGNIFNNPNYSNEIVLTNTTCLSVHFNSNVLCNSQNIKNKNTIHSLENIKEEHDHTKNPSNFFLETNTYYDLNLTKSVDGNN

Results are given in words; binding and its absence hold for the method and conditions named. In cells and extracts the contact can be indirect. Here binding means that the protein was enriched with, or labelled near, the bait; the list need not be complete. For some of these results: No binding means not detected with the bait. Tags and fused reporters may be left off the sequences shown. One block for each binder: values may come before it.
